# Test results: the supplement of paper PMC8047044
# Some of the results follow. Most values come without repeats; read them as rough.
# System: Neuro-2a
# Experiment: neurite formation score, plate-normalized to DMSO control mean 5.04 (score (0-8 scale)); higher = more or longer neurites
# Conditions: 10 µM
row,SMILES,neurite formation score
1,COc1ccc2c(c[n+](C)c3c4cc5c(cc4ccc23)OCO5)c1OC [Chelerythrine Chloride],-0.124
2,CCN1CCN(C(=O)Cc2ccc(Nc3ncc(F)c(Nc4ccc(C(=O)Nc5ccccc5Cl)cc4)n3)cc2)CC1 [Aurora A Inhibitor I],4.08
3,N#CC(C#N)=Cc1ccc(O)c(O)c1,4.54
4,CC(C)(C)c1cc(C=C(C#N)C#N)cc(Br)c1O,2.54
5,COc1ccc(N(C(=O)Oc2c(C)cccc2C)c2ccnc(Nc3ccc(N4CCN(C)CC4)cc3)n2)c(OC)c1,2.19
6,CC(C)(C)c1cc(C=C(C#N)C#N)cc(C(C)(C)C)c1O [Tyrphostin 9],3.43
7,COc1cc([C@@H]2c3cc4c(cc3[C@H](O)[C@H]3COC(=O)[C@@H]23)OCO4)cc(OC)c1OC,1.21
8,O=c1[nH]c2ccccc2n1C1CCN(Cc2ccc(-c3[nH]c4cc5ncnc5cc4nc3-c3ccccc3)cc2)CC1 [AKT inhibitor VIII],4.21
9,Cc1ccccc1-n1c(Cn2cnc3c(N)ncnc32)nc2cccc(C)c2c1=O,4.86
10,Cn1cc(C2=C(c3cn(C4CCN(Cc5ccccn5)CC4)c4ccccc34)C(=O)NC2=O)c2ccccc21,0.209
11,COC[C@H]1OC(=O)c2coc3c2[C@@]1(C)C1=C(C3=O)[C@@H]2CCC(=O)[C@@]2(C)C[C@H]1OC(C)=O [Wortmannin],5.43
12,O=c1[nH]c2ccc(Cl)cc2c(N[C@@H]2CN3CCC2CC3)c1-c1nc2ccccc2[nH]1,4.43

# Taken from above:
# CC(C)(C)c1cc(C=C(C#N)C#N)cc(C(C)(C)C)c1O [Tyrphostin 9] – neurite formation score: 3.43
# CC(C)(C)c1cc(C=C(C#N)C#N)cc(Br)c1O – neurite formation score: 2.54
